Source: PubChem BioAssay AID504834 (National Center for Advancing Translational Sciences (NCATS), 2011)
In all, about 320,000 compounds went through this assay and about 22,000 (6.9%) were called active. The inconclusive results got no clear call from the source; some entries with a clear call stand among them for comparison. Calls follow the shape of the dose curve; as a rule, active = well fitted inhibition curve with a large enough effect; inconclusive = small, poorly fitted or top-dose-only effect, or another doubt; inactive = no such curve, though single readings can be large or run the other way. Potencies of inconclusive entries are doubtful fits and often do not repeat.

Assay: Primary qHTS for delayed death inhibitors of the malarial parasite plastid, 96 hour incubation
Settings: P. falciparum luciferase reporter growth; series mostly up to 28.7 µM; activity change, negative = inhibition: at the top concentration
Method in brief: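 Cell-based qHTS: luciferase-tagged P. falciparum in erythrocytes (2% hematocrit, 0.05% parasitemia final) incubated with compounds for 96 hours, 37 C, 5% CO2; luciferase detection reagent then added and luminescence measured.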
% is scaled to controls: 0 for no effect and ±100 for the full control effect; potency is read from the fitted curve at half-maximal effect.

SMILES	activity change, negative = inhibition	Potency
Cc1ccccc1OCC(=O)NNC(=O)c1ccoc1C	inactive: -11.6%	–
CN(C(=O)CSc1nc(O)cc(=O)n1-c1ccccc1F)c1ccccc1	inactive: -3.6%	–
CN(C)S(=O)(=O)N1CCC(Oc2ccc(C(=O)N3CCCCCCC3)cc2)CC1	inactive: -18.9%	–
CN=C(N)NC(=O)Nc1c(C)cccc1C	–	inconclusive: 18.5 µM [inhibitor, single point]
Cc1csc(NC(=O)CSc2nnc(Cc3cccn3C)n2CCc2ccccc2)n1	–	inconclusive: 7.38 µM [inhibitor, partial curve, poor fit]
CCn1c(O)c(C(c2ccccn2)c2c(O)n(CC)c(=S)[nH]c2=O)c(=O)[nH]c1=S	inactive: 8.24%	–
CCOC(=O)c1ccc(NC(=S)NCCc2ccccc2)cc1	–	active: 13.1 µM
COc1cccc(NCc2nnc(SCC(=O)NC3CCS(=O)(=O)C3)n2C2CCCCC2)c1 (centres undefined)	–	inconclusive: 10.4 µM [inhibitor, single point]
Cc1cc(SCC(=O)NC(=O)c2cccn2C)nc2ccccc12	inactive: 0%	–
CC1=N/C(=C/c2cccnc2)C(=O)O1	inactive: 2.61%	–
Nc1ccc(N2CCN(c3ccc(Cl)c(Cl)c3)CC2)cc1	–	inconclusive: 10.4 µM [inhibitor, partial curve, poor fit]
O=C(Cn1cnc2ccccc2c1=O)Nc1ccc2c(c1)CCC2	–	inconclusive: 14.7 µM [inhibitor, single point]
O=C(O)C1CCCCC1C(=O)NCc1ccc(Cl)c(Cl)c1 (centres undefined)	–	inconclusive: 11.7 µM [inhibitor, single point]
CC/C(C)=N/N1C(=O)c2ccccc2NC1(C)CC (centres undefined)	inactive: 21%	–
Cc1ccc(S(=O)(=O)c2c(C)cc(C)[nH]c2=O)c(C)c1	inactive: 0.738%	–
CC(C(=O)Nc1ccc2c(c1)OCCO2)n1nnc(-c2ccccc2)n1 (centres undefined)	–	inconclusive: 4.15 µM [inhibitor, single point]
CCOc1ccc(NC(=S)NC23CC4CC(CC(C4)C2)C3)cc1	inactive: 20.9%	–
CCc1ccc(N(CC(=O)NC2CCCC2)S(=O)(=O)c2c(C)noc2C)cc1	–	inconclusive: 14.7 µM [inhibitor, partial curve, poor fit]
O=C(CCCSc1nc2ccccc2[nH]1)NCc1ccccc1	–	inconclusive: 18.5 µM [inhibitor, single point]
Cc1ccc(C)c2c1cc(C)c1nnc(SCC(=O)Nc3nc4c(s3)CCCC4)n12	inactive: 11%	–
Cn1cnnc1SCC(=O)NC1CCCN(Cc2ccc(Cl)cc2)C1 (centres undefined)	–	inconclusive: 13.1 µM [inhibitor, single point]
CCc1nnc(NC(=O)CSc2nnc(-c3ccncc3)n2C)s1	–	inconclusive: 11.7 µM [inhibitor, single point]
CCc1cccc(C)c1NC(=O)CN(C)Cc1cccc(F)c1	–	inconclusive: 7.38 µM [inhibitor, partial curve, poor fit]
COc1cccc(Oc2ccc(N/C=C/C(=O)C(C)(C)C)cc2)c1	inactive: -23.9%	–
CCC(=O)Nc1nc2ccc(S(C)(=O)=O)cc2s1	–	inconclusive: 13.1 µM [inhibitor, single point]

Three of the compounds above, as labelled records.
Cc1ccc(C)c2c1cc(C)c1nnc(SCC(=O)Nc3nc4c(s3)CCCC4)n12
  activity change, negative = inhibition: inactive: 11%
Cn1cnnc1SCC(=O)NC1CCCN(Cc2ccc(Cl)cc2)C1 (centres undefined)
  Potency: inconclusive: 13.1 µM [inhibitor, single point]
CCc1nnc(NC(=O)CSc2nnc(-c3ccncc3)n2C)s1
  Potency: inconclusive: 11.7 µM [inhibitor, single point]

(next part)

SMILES	activity change, negative = inhibition	Potency
COc1ccc(NC(=O)CSc2nnc(-c3ccccc3C)n2N)cc1	inactive: 17%	–
O=C(Nc1nc(=O)n(C(=O)c2cccc(C(F)(F)F)c2)s1)c1ccccc1	–	inconclusive: 18.5 µM [inhibitor, single point]
O=C1[C@H]2[C@@H](c3ccc(Cl)cc3)N3C(=O)N(c4cccc(F)c4)C(=O)[C@@]3(Cc3ccc(Cl)cc3)[C@H]2C(=O)N1C1CCCCC1	–	inconclusive: 16.5 µM [inhibitor, single point]
COc1cc(NC(=O)Nc2cccc([N+](=O)[O-])c2)cc(OC)c1	inactive: -19.7%	–
CCC(C)C(=O)N1c2ccccc2C(=C2SC(C(=O)OC)=C(C(=O)OC)S2)C(=S)C1(C)C (centres undefined)	–	inconclusive: 18.5 µM [inhibitor, single point]
CCCCn1c(N)c(N(CCOC)C(=O)CSCc2ccc(Cl)c(Cl)c2)c(=O)[nH]c1=O	–	inconclusive: 14.7 µM [inhibitor, partial curve, poor fit]
COc1cccc(-c2c(C#N)c(SC)nc3cc(C)nn23)c1	inactive: 0.691%	–
COC(=O)N/N=C\c1ccc(OC(=O)c2ccco2)cc1	–	inconclusive: 18.5 µM [inhibitor, single point]
COc1ccc(C(=O)Nc2ccccc2)cc1S(=O)(=O)NCc1ccco1	inactive: -4.73%	–
COCCNC(=O)C1CCCN(S(=O)(=O)c2cccc3nsnc23)C1 (centres undefined)	–	inconclusive: 18.5 µM [inhibitor, single point]
CC(=O)Nc1ccccc1C(=O)C(=O)Nc1ccc(C)c(F)c1	–	inconclusive: 9.28 µM [inhibitor, single point]
CC1CCN(c2cc(N(C)CCO)c([N+](=O)[O-])c3nonc23)CC1	–	inconclusive: 18.5 µM [inhibitor, single point]
Cc1c(NC(=O)COC(=O)C2(c3ccc(F)cc3)CCCC2)c(=O)n(-c2ccccc2)n1C	inactive: 3.82%	–
CC1(c2ccc(Cl)cc2Cl)OCC(Cn2cncn2)O1 (centres undefined)	–	inconclusive: 18.5 µM [inhibitor, single point]
Cc1ccc(OCC(=O)NNC(=O)CCc2ccccc2)c(Br)c1	inactive: 20%	–
N#CCSc1n[nH]c2nc3c(c(=O)n12)C1(CCCCC1)Cc1ccccc1-3	inactive: -8.53%	–
Cc1cccc(C(=O)NNC(=O)/C=C/C(=O)O)c1	inactive: 17%	–
Cc1cccc(N2CCN(C(=O)CNC(=O)c3cccc([N+](=O)[O-])c3)CC2)c1C	–	inconclusive: 20.8 µM [inhibitor, partial curve, poor fit]
Cc1ccc(CSc2nnc(CCCCCNC(=O)OC(C)(C)C)o2)cc1	inactive: -20%	–
O=C(NCc1ccccc1)c1ccc(NC(=O)c2ccccc2F)cc1	–	inconclusive: 0.0465 µM [inhibitor, full curve, poor fit]
Cc1ccc(C(=O)Nc2nc(=O)n(C(=O)c3ccccc3Cl)s2)cc1	inactive: 41.6%	–
S=C(NCCCN1CCOCC1)Nc1ccc(Cl)cc1Cl	inactive: 14.6%	–
O=C(C[n+]1ccc(CCSc2ccc(F)cc2)cc1)c1ccccc1	inactive: -1.08%	–
COc1ccc(NC(=O)Nc2c(SC)nsc2SC)cc1	–	inconclusive: 3.7 µM [inhibitor, partial curve]
COc1cccc(-c2cc(C(F)(F)F)n3ncc(C(=O)O)c3n2)c1	inactive: 14.3%	–

Among those listed so far, two contain a tert-butyl group:
SMILES	activity change, negative = inhibition	Potency
COc1cccc(Oc2ccc(N/C=C/C(=O)C(C)(C)C)cc2)c1	inactive: -23.9%	–
Cc1ccc(CSc2nnc(CCCCCNC(=O)OC(C)(C)C)o2)cc1	inactive: -20%	–

Going on with the list:

SMILES	activity change, negative = inhibition	Potency
CCOC(=O)/C(=N\Nc1ccccc1Cl)N1CCN(C)CC1	inactive: 21.9%	–
CSc1ccccc1NC(=O)CN(C)C(=O)c1c(C)nn(Cc2ccccc2)c1C	–	inconclusive: 18.5 µM [inhibitor, single point]
COC(=O)CNC(=O)c1c(C)cc(=O)oc1C	–	inconclusive: 4.65 µM [inhibitor, partial curve, poor fit]
C(#Cc1ccccc1)C[N+]1(CC#Cc2cccc3ccccc23)CCOCC1	inactive: 7.76%	–
Cc1ccc(C(=O)NC(=S)Nc2ccc(S(=O)(=O)N3CCN(C)CC3)cc2)cc1	–	inconclusive: 5.22 µM [inhibitor, partial curve]
CCCCn1c(N)c(N(CCOC)C(=O)c2ccc(COc3ccccc3)o2)c(=O)[nH]c1=O	–	inconclusive: 3.29 µM [inhibitor, single point]
O=C(NNC(=O)c1cc(F)c(F)cc1Cl)c1ccc(NS(=O)(=O)c2cccs2)cc1	inactive: 13.2%	–
CCn1nc(C)c(CNC(=O)C2CCC(=O)N(CCc3ccc(OC)cc3)C2)c1C (centres undefined)	inactive: 0.936%	–
Cc1cnc(NC(=O)CN2CCN(c3ccccc3F)CC2)s1	inactive: 13.5%	–
Fc1ccc2c(c1)C(c1ccncc1)=NNC(c1cccnc1)=N2	–	inconclusive: 0.37 µM [inhibitor, partial curve, poor fit]
CN1C2CCC1CC(NC(=O)CSc1ccc(Cl)cc1)C2 (centres undefined)	inactive: -1.3%	–
COC(=O)C1=C(C)C(c2ccc(OC)cc2)NC(=S)N1 (centres undefined)	–	inconclusive: 0.0828 µM [inhibitor, full curve, poor fit]
CCCCCC(=O)Nc1ccc(S(=O)(=O)Nc2nccnc2OC)cc1	–	active: 2.33 µM
CN1C2C=C3C(C#N)=C(N)C(C#N)(C#N)[C@@H](c4ccc(Cl)cc4)[C@@H]3C1CC2 (some centres undefined)	–	inconclusive: 18.5 µM [inhibitor, partial curve, poor fit]
COc1ccc(C(=O)NCc2ccncc2)cc1OC	inactive: 10.2%	–
CCOc1cccc(/C=N/NC(=O)c2ccc3c(c2)OCCO3)c1O	–	inconclusive: 11.7 µM [inhibitor, single point]
CN(C)S(=O)(=O)c1ccc(-c2csc(-c3cccnc3)n2)cc1	–	inconclusive: 3.7 µM [inhibitor, partial curve, poor fit]
CCOC(=O)c1cnc2c(C)cc(Cl)cc2c1N1CCN(C)CC1	–	inconclusive: 9.28 µM [inhibitor, partial curve]
Cc1cccc(N(C)c2cc(C)nc3nc(C)nn23)c1	–	inconclusive: 13.1 µM [inhibitor, partial curve, poor fit]
Cc1c(C)n(Cc2ccccc2)c2ncnc(N)c12	–	inconclusive: 18.5 µM [inhibitor, partial curve, poor fit]
CCCN(CC(=O)Nc1ccccc1C)C(=O)c1ccc(Cl)c(S(=O)(=O)N2CCCC2)c1	–	inconclusive: 4.15 µM [inhibitor, partial curve]
CN1CCN(c2ccc(S(=O)(=O)N3CCCCC3)cc2NC(=O)COc2ccc(F)cc2)CC1	–	inconclusive: 1.65 µM [inhibitor, full curve]
CN1CCN(c2ccc(NC(=O)COc3ccccc3[N+](=O)[O-])cc2)CC1	inactive: 0%	–
Cc1ccc(C2c3c(oc4ccc(Cl)cc4c3=O)C(=O)N2CCCN2CCOCC2)o1 (centres undefined)	–	inconclusive: 16.5 µM [inhibitor, single point]
